In the supplement of paper PMC10331698:
± gives the standard deviation of the averaged measurements. Most entries show no effect beyond the scatter of the controls.

Assays:
Test in all cases: level (log10 ratio to DMSO vehicle control); higher = higher biomarker level / cell amount than vehicle control
Perfluoro-1-iodohexane = compound: FC(F)(F)C(F)(F)C(F)(F)C(F)(F)C(F)(F)C(F)(F)I [Perfluoro-1-iodohexane]; details: in DMSO
Procedure: (§1)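 BioMAP Diversity Plus panel of 12 human primary cell co-culture systems (3C, 4H, LPS, SAg, BT, BF4T, BE3C, CASM3C, HDF3CGF, KF3CT, MyoF, Mphg). Compounds were added 1 h before stimulation and left for 24 h (MyoF 48 h; BT 72 h for soluble read-outs or 6 d for IgG). Biomarkers were read by ELISA, cytotoxicity by SRB, PBMC viability and proliferation by Alamar Blue. Each well value was divided by the mean of 8 DMSO control wells on the same plate and log10 transformed; duplicate blinded samples were tested at 4 concentrations.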

[1] = compound: O=S(=O)(O)C(F)(F)C(F)(F)C(F)(F)C(F)(F)C(F)(F)C(F)(F)F [Perfluorohexanesulfonic acid]; details: 2200 nM; in DMSO
Procedure: as §1

[2] = compound: OCCCC(F)(F)C(F)(F)C(F)(F)C(F)(F)C(F)(F)C(F)(F)C(F)(F)F [7:3 Fluorotelomer alcohol]; details: 2200 nM; in DMSO
Procedure: as §1

[3] = compound: C=CC(=O)OCCC(F)(F)C(F)(F)C(F)(F)C(F)(F)F [2-(Perfluorobutyl)ethyl acrylate]; details: 2200 nM; in DMSO
Procedure: as §1

[4] = compound: O=C(O)C(F)(F)C(F)(F)C(F)(F)C(F)(F)C(F)(F)C(F)(F)C(F)(F)C(F)(F)C(F)(F)C(F)(F)C(F)(F)C(F)(F)C(F)(F)F [Perfluorotetradecanoic acid]; details: in DMSO
Procedure: as §1

Hexafluoroamylene glycol = compound: OCC(F)(F)C(F)(F)C(F)(F)CO [Hexafluoroamylene glycol]; details: 2200 nM; in DMSO
Procedure: as §1

[5] = compound: C=CC(=O)OCCC(F)(F)C(F)(F)C(F)(F)C(F)(F)C(F)(F)C(F)(F)C(F)(F)C(F)(F)F [8:2 Fluorotelomer acrylate]; details: 2200 nM; in DMSO
Procedure: as §1

[6] = compound: O=C(O)C=C(C(F)(F)F)C(F)(F)F [3,3-Bis(trifluoromethyl)-2-propenoic acid]; details: in DMSO
Procedure: as §1

[7] = compound: O=S(=O)(O)CCC(F)(F)C(F)(F)C(F)(F)C(F)(F)F [4:2 Fluorotelomer sulfonic acid]; details: 2200 nM; in DMSO
Procedure: as §1

[8] = compound: FC(F)(F)C(F)(C(F)(F)F)C(F)(F)C(F)(F)CC1CO1 [3-(Perfluoro-3-methylbutyl)-1,2-propenoxide]; details: in DMSO
Procedure: as §1

[9] = compound: C=CC(=O)OCC(F)(F)C(F)(F)C(F)(F)COC(=O)C=C [1H,1H,5H,5H-Perfluoro-1,5-pentanediol diacrylate]; details: 2200 nM; in DMSO
Procedure: as §1

[10] = compound: O=C(Cl)C(F)(F)C(F)(F)C(F)(F)C(=O)Cl [Hexafluoroglutaryl chloride]; details: 2200 nM; in DMSO
Procedure: as §1

[11] = compound: FC(F)(I)C(F)(F)C(F)(F)C(F)(F)C(F)(F)C(F)(F)I [1,6-Diiodoperfluorohexane]; details: 2200 nM; in DMSO
Procedure: as §1

Row | Test System | level (log10) (Perfluoro-1-iodohexane; 2200 nM) | level (log10) (Perfluoro-1-iodohexane; 6700 nM) | level (log10) (Perfluoro-1-iodohexane; 20000 nM) | level (log10) (Perfluoro-1-iodohexane; 60000 nM) | level (log10) [1] | level (log10) [2] | level (log10) [3] | level (log10) ([4]; 740 nM) | level (log10) ([4]; 2200 nM) | level (log10) (Hexafluoroamylene glycol) | level (log10) [5] | level (log10) ([6]; 2200 nM) | level (log10) ([6]; 6700 nM) | level (log10) ([6]; 20000 nM) | level (log10) ([6]; 60000 nM) | level (log10) [7] | level (log10) ([8]; 740 nM) | level (log10) ([8]; 2200 nM) | level (log10) [9] | level (log10) [10] | level (log10) [11]
1 | KF3CT:CXCL10/IP-10 | -0.001 ± 0.0071 | 0.005 ± 0.0014 | 0.001 ± 0.0028 | 0.0065 ± 0.0092 | -0.0055 ± 0.0078 | -0.0005 ± 0.0064 | -0.0055 ± 0.0021 | 0.0005 ± 0.0064 | -0.005 ± 0.0014 | -0.0045 ± 0.0092 | -0.0075 ± 0.012 | -0.0155 ± 0.00071 | -0.01 ± 0.013 | -0.027 ± 0.0014 | -0.0225 ± 0.019 | 0.002 ± 0.0014 | -0.0065 ± 0.015 | -0.0075 ± 0.0064 | -0.002 ± 0.0099 | -0.0055 ± 0.00071 | -0.004 ± 0.017
2 | 3C:CXCL9/MIG | 0.0075 ± 0.0021 | 0.0045 ± 0.025 | 0.007 ± 0.014 | 0.0075 ± 0.029 | -0.0055 ± 0.026 | -0.002 ± 0.011 | -0.009 ± 0.0099 | 0.0045 ± 0.0064 | 0.003 ± 0.0057 | -0.0025 ± 0.005 | -0.0105 ± 0.015 | -0.006 ± 0.0042 | -0.015 ± 0.017 | -0.004 ± 0.028 | 0.013 ± 0.025 | 0.0005 ± 0.0021 | -0.0095 ± 0.021 | -0.009 ± 0.0099 | 0.005 ± 0.025 | -0.004 ± 0.0042 | 0.0045 ± 0.0021
3 | lMphg:CCL3/MIP-1alpha | 0.031 ± 0.0071 | 0.033 ± 0.031 | 0.023 ± 0.0042 | 0.0285 ± 0.033 | 0.0245 ± 0.029 | -0.0025 ± 0.021 | 0.0105 ± 0.021 | -0.039 ± 0.033 | -0.029 ± 0.03 | 0.013 ± 0.0014 | 0.0165 ± 0.028 | -0.0315 ± 0.04 | -0.0065 ± 0.071 | -0.0015 ± 0.023 | -0.0075 ± 0.016 | 0.057 ± 0.098 | -0.002 ± 0.021 | -0.018 ± 0.023 | 0.0125 ± 0.0092 | -0.0135 ± 0.015 | -0.0025 ± 0.025
4 | BF4T:CXCL8/IL-8 | 0.014 ± 0.011 | 0.0175 ± 0.021 | -0.009 ± 0.058 | 0.016 ± 0.058 | 0.003 ± 0.024 | 0.058 ± 0.047 | 0.011 ± 0.04 | 0.0355 ± 0.0064 | 0.021 ± 0.023 | 0.009 ± 0.011 | -0.0075 ± 0.042 | -0.003 ± 0.011 | -0.0135 ± 0.022 | -0.022 ± 0.0099 | 0.0345 ± 0.05 | 0.011 ± 0.035 | 0.0185 ± 0.0035 | 0.005 ± 0.0099 | -0.003 ± 0.035 | 0.026 ± 0.059 | 0.0175 ± 0.026
5 | BE3C:tPA | 0.0105 ± 0.043 | -0.008 ± 0.028 | -0.008 ± 0.023 | 0.0125 ± 0.028 | -0.015 ± 0.017 | -0.048 ± 0.024 | -0.0055 ± 0.046 | 0.0435 ± 0.019 | 0.046 ± 0.095 | -0.0025 ± 0.023 | -0.0025 ± 0.064 | -0.0965 ± 0.079 | -0.16 ± 0.041 | -0.166 ± 0.0042 | -0.179 ± 0.073 | -0.0095 ± 0.021 | 0.0115 ± 0.071 | -0.006 ± 0.03 | -0.002 ± 0.05 | 0.015 ± 0.011 | -0.031 ± 0.0014
6 | KF3CT:CCL2/MCP-1 | 0.015 ± 0.011 | 0.0225 ± 0.032 | -0.015 ± 0.0014 | -0.0185 ± 0.047 | 0.02 ± 0.055 | 0.0025 ± 0.012 | -0.0075 ± 0.029 | 0.0045 ± 0.019 | -0.012 ± 0.0042 | 0.0105 ± 0.012 | -0.006 ± 0.061 | 0.0135 ± 0.035 | -0.0055 ± 0.036 | -0.015 ± 0.014 | -0.028 ± 0.052 | 0.0015 ± 0.04 | 0.0125 ± 0.052 | 0.005 ± 0.028 | -0.02 ± 0.089 | -0.0095 ± 0.022 | 0.037 ± 0.023
7 | SAg:CD40 | -0.0045 ± 0.028 | -0.019 ± 0.013 | -0.0195 ± 0.018 | 0.012 ± 0.061 | -0.003 ± 0.0057 | -0.0215 ± 0.0078 | -0.0255 ± 0.0021 | -0.0405 ± 0.016 | -0.0495 ± 0.021 | 0.003 ± 0.048 | -0.006 ± 0.0099 | 0.018 ± 0.0071 | 0.0205 ± 0.005 | -0.01 ± 0.017 | -0.094 ± 0.038 | -0.005 ± 0.028 | -0.0185 ± 0.025 | -0.021 ± 0.0085 | -0.0275 ± 0.052 | 0.007 ± 0.011 | -0.0255 ± 0.032
8 | CASM3C:CXCL9/MIG | 0.008 ± 0.014 | -0.0015 ± 0.0064 | 0.002 ± 0.0028 | -0.0025 ± 0.036 | 0.0075 ± 0.0078 | 0.009 ± 0.021 | -0.004 ± 0.033 | 0.0245 ± 0.025 | -0.0155 ± 0.016 | 0.005 ± 0.048 | 0.0365 ± 0.023 | -0.052 ± 0.079 | -0.059 ± 0.051 | -0.0845 ± 0.022 | -0.0965 ± 0.087 | 0.0005 ± 0.043 | -0.0105 ± 0.037 | -0.0145 ± 0.018 | -0.0165 ± 0.026 | 0.035 ± 0.013 | 0.005 ± 0.0042
9 | KF3CT:uPA | -0.007 ± 0.027 | 0.013 ± 0.0042 | 0.006 ± 0.023 | 0.007 ± 0.017 | 0.006 ± 0.0014 | -0.0295 ± 0.042 | -0.0205 ± 0.022 | -0.002 ± 0.0042 | 0.019 ± 0.02 | 0.0085 ± 0.0078 | -0.0005 ± 0.0035 | 0.0135 ± 0.023 | 0.027 ± 0.02 | 0.0275 ± 0.028 | 0.0325 ± 0.0021 | 0 ± 0.0071 | -0.014 ± 0.031 | 0.006 ± 0.028 | 0.006 ± 0.013 | 0.0235 ± 0.0035 | 0.017 ± 0.011
10 | SAg:CXCL8/IL-8 | -0.001 ± 0.05 | 0.0365 ± 0.016 | -0.004 ± 0.0071 | 0.002 ± 0.059 | 0.026 ± 0.038 | -0.0155 ± 0.066 | -0.013 ± 0.027 | 0.044 ± 0.089 | -0.024 ± 0.017 | 0.027 ± 0.038 | 0.0035 ± 0.11 | 0.0195 ± 0.039 | -0.0225 ± 0.025 | -0.101 ± 0.023 | -0.227 ± 0.084 | 0.015 ± 0.0085 | 0.014 ± 0.054 | -0.0205 ± 0.005 | -0.0585 ± 0.13 | -0.014 ± 0.033 | 0.027 ± 0.011
11 | lMphg:SRB-Mphg | 0.009 ± 0.021 | 0.002 ± 0.0057 | -0.006 ± 0.0028 | 0.0025 ± 0.029 | 0.061 ± 0.048 | 0.005 ± 0.017 | 0.0355 ± 0.021 | 0.012 ± 0.018 | -0.008 ± 0.0042 | -0.0015 ± 0.016 | 0.0015 ± 0.0021 | 0.0015 ± 0.033 | -0.032 | -0.017 ± 0.014 | 0.0035 ± 0.012 | -0.003 ± 0.028 | 0.034 ± 0.017 | 0.0355 ± 0.011 | 0.006 ± 0.0014 | 0.0205 ± 0.025 | 0.0435 ± 0.013
12 | LPS:M-CSF | 0.012 ± 0.023 | 0.0135 ± 0.019 | -0.0055 ± 0.05 | -0.003 ± 0.025 | 0.0115 ± 0.015 | 0.0025 ± 0.029 | 0.005 ± 0.038 | 0.01 ± 0.011 | -0.019 ± 0.011 | 0.02 ± 0.0028 | 0.021 ± 0.067 | -0.0305 ± 0.005 | -0.071 ± 0.082 | -0.155 ± 0.13 | -0.203 ± 0.13 | -0.0005 ± 0.023 | 0.014 ± 0.037 | -0.0025 ± 0.0021 | 0.002 ± 0.068 | 0.009 ± 0.048 | 0.028 ± 0.027

Just level (log10) (Perfluoro-1-iodohexane; 6700 nM), level (log10) (Perfluoro-1-iodohexane; 2200 nM) and level (log10) ([6]; 2200 nM), for some of the entries so far:
Row | Test System | level (log10) (Perfluoro-1-iodohexane; 6700 nM) | level (log10) (Perfluoro-1-iodohexane; 2200 nM) | level (log10) ([6]; 2200 nM)
4 | BF4T:CXCL8/IL-8 | 0.0175 ± 0.021 | 0.014 ± 0.011 | -0.003 ± 0.011
10 | SAg:CXCL8/IL-8 | 0.0365 ± 0.016 | -0.001 ± 0.05 | 0.0195 ± 0.039
